# In paper PMC7819943, “Rice protein-binding microarrays: a tool to detect cis-acting elements near promoter regions in rice”:
# The other results are listed elsewhere or left out.
# Target: T1, OsSMF1 (Oryza sativa, UniProt Q6ZLB0 1-436)
# T1 sequence: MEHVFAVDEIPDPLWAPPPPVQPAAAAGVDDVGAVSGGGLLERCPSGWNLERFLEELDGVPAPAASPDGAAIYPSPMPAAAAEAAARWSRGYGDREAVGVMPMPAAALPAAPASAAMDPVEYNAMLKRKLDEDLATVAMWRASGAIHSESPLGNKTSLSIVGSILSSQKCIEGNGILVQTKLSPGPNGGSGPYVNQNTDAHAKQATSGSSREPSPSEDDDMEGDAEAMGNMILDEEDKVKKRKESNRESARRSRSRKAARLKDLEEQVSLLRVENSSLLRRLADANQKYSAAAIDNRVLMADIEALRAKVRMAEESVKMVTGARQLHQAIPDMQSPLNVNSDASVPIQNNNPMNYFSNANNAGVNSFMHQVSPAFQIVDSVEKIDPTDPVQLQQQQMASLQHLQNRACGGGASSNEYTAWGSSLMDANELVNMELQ
# Experiment: protein-binding microarray (RPBM); PBS, 2% BSA, 51.3 ng/ul salmon testes DNA, 50 uM zinc acetate, 200 nM TF, 25 C, 1 h; high values mean tight binding
# Conditions: protein: recombinant; tags: N-terminal polyhistidine and DsRed monomer fusion (pET32a); chain copies: 2; label: CyDye5-dUTP incorporated in the synthesized complementary strand; 3' TTTTT single-stranded linker to array surface; dsDNA, one strand shown
# In short: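 A custom Agilent array was converted to double-stranded form by primer extension with Cy5-dUTP and blocked with 2% BSA. Protein at 200 nM in PBS with 2% BSA, salmon testes DNA and 50 µM zinc acetate was applied for 1 h at 25 °C, followed by washing. The proteins were polyhistidine–DsRed N-terminal fusions of transcription factors, expressed in E. coli BL21-CodonPlus and Ni–NTA-purified. The binding signal is per-feature fluorescence intensity (arbitrary units) from an Axon 4000B scanner.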
row,Sequence,binding signal
1,AAAGGGCAGGCACATCGCTTTCGGGCCCTGTCACGTACCCCGGAGTCACCTAGTGCAG,3920 fluorescence intensity (a.u.)
2,TTAGTTTTATATAAAATGTGTCACATGATAATAGTAGTACCGGAGTCACCTAGTGCAG,3870 fluorescence intensity (a.u.)
3,CACTTTTATGACATTTTCAACCATACTATTTTCCTTAAAGCGGAGTCACCTAGTGCAG,39800 fluorescence intensity (a.u.)
4,CTGGTGGAATGATGCTGTTATACTGTCACCACTCATCGATCGGAGTCACCTAGTGCAG,5130 fluorescence intensity (a.u.)
5,GCGGCGGTGGGGATGGGGATAGGGCGGCGGCGGCGGATGGCGGAGTCACCTAGTGCAG,4780 fluorescence intensity (a.u.)
6,GTATCAAGTGCCAATTTGTCAAATTTGAACGCAGCTAGAGCGGAGTCACCTAGTGCAG,23600 fluorescence intensity (a.u.)
7,ATTGGTTAACCAGGTTGCAAAATCATAATGAGATTTGGATCGGAGTCACCTAGTGCAG,3200 fluorescence intensity (a.u.)
8,CCCCATGTAATGGTGTCATGGCCAGCACTATTAGCTGTAACGGAGTCACCTAGTGCAG,6240 fluorescence intensity (a.u.)
9,ATCTGTCAGTGCCACATCACCACCACACAACCGCAAAGAACGGAGTCACCTAGTGCAG,4660 fluorescence intensity (a.u.)
10,TAAAGAATAAGTAAATCATCATCGCTGATGTGTTGGCCCTCGGAGTCACCTAGTGCAG,4880 fluorescence intensity (a.u.)
11,AAAATGAGATAGGTCTTTCATATCAAAGCTGATGTGGCAACGGAGTCACCTAGTGCAG,17900 fluorescence intensity (a.u.)
12,TCAATTCCCACGGCCGTACTACTACGTGTCATCGCAATCTCGGAGTCACCTAGTGCAG,7520 fluorescence intensity (a.u.)
13,TTCGGCGCAAATTTCTAATCATGATGTAATATAATTAGCTCGGAGTCACCTAGTGCAG,3270 fluorescence intensity (a.u.)
14,CCCGTTTCACTGTGTGTGTGTGTGTGACGTTAACACGCTACGGAGTCACCTAGTGCAG,4400 fluorescence intensity (a.u.)
15,TGTTTCGGCCTGTTAGCCTACAACGACGTGGGCTCGCGACCGGAGTCACCTAGTGCAG,3590 fluorescence intensity (a.u.)
16,CAAGTCATGTCACCACTGCTTTAGCGCCACCGACGTGGTTCGGAGTCACCTAGTGCAG,4520 fluorescence intensity (a.u.)
17,ATCAGCAAGAATGCGAGGGAGACGGCGGAGAGCTCGGGAACGGAGTCACCTAGTGCAG,43000 fluorescence intensity (a.u.)
18,GGCACCGTAATAAACCCAACGTCCTAGCTGGAACAAATTTCGGAGTCACCTAGTGCAG,4140 fluorescence intensity (a.u.)
19,TTTGTTATAATTTTAATTTACACGTTGCAACGCACGGATACGGAGTCACCTAGTGCAG,5780 fluorescence intensity (a.u.)
20,GCATGTCATGCTAAGACATATGACATACCACCAATCCTTGCGGAGTCACCTAGTGCAG,3900 fluorescence intensity (a.u.)
21,TAGTCTTTTCCATGTCATGTGATCATGTGTGGAGTTGATTCGGAGTCACCTAGTGCAG,5820 fluorescence intensity (a.u.)

row,Sequence,binding signal
1,CACTCAAAATTGTCACGGTCTCAACTCCCTGAGTATCATGCGGAGTCACCTAGTGCAG,3340 fluorescence intensity (a.u.)
2,CTATTTGTGATTTAGCGGAACGTGCTACCGGAACTCCCATCGGAGTCACCTAGTGCAG,22400 fluorescence intensity (a.u.)
3,CCCGTGCGGCGCGCACACGTCACTCTACCTAGCTTACACCCGGAGTCACCTAGTGCAG,16400 fluorescence intensity (a.u.)
4,GAGGGAGAGAGAGACAGGAGAGGAGAGGAGAGAGCACGATCGGAGTCACCTAGTGCAG,3460 fluorescence intensity (a.u.)
5,GATCAATCATCCTTGTTCACAAGGCTGCCTGACATGGATGCGGAGTCACCTAGTGCAG,3730 fluorescence intensity (a.u.)
6,CCTCCTCCTGCCTGCCACTTGGGGCGCAGTTGCTGCTCCTCGGAGTCACCTAGTGCAG,32400 fluorescence intensity (a.u.)
7,CACAGCCTTAATGGACACACACGCTTACTCATCTAAACGTCGGAGTCACCTAGTGCAG,3570 fluorescence intensity (a.u.)
8,ACGATGCCACGGCCGCGCGCCACCGTCCTCCACGTCGTCGCGGAGTCACCTAGTGCAG,10200 fluorescence intensity (a.u.)
9,AGCCTAGCCTGAGATCTCCGGGCTCCGGAGGATGGCCCAGCGGAGTCACCTAGTGCAG,3450 fluorescence intensity (a.u.)
10,AAACGCGGCTAGTCGTTCGAGTCTGTGTACGTGGCACTGTCGGAGTCACCTAGTGCAG,12000 fluorescence intensity (a.u.)
11,AGACTGCTAGTCTGCTACTGCTCAGTCATCATCGTTTCAGCGGAGTCACCTAGTGCAG,5250 fluorescence intensity (a.u.)
12,CGCTAAAGCCACGTCACGTCACCCTCTCCGTCGTCCAGGCCGGAGTCACCTAGTGCAG,30700 fluorescence intensity (a.u.)
13,GCATATATGTGGCATGCCACGTAGGATTTCGGAGAGGTCGCGGAGTCACCTAGTGCAG,16000 fluorescence intensity (a.u.)
14,GTTAGTTGGCTGCGGCCATCGCAATTAGCCAAATGGTCGTCGGAGTCACCTAGTGCAG,5130 fluorescence intensity (a.u.)
15,TATTTGAGAAAGTAGCTTATGACATGGCAAGATGATGCAACGGAGTCACCTAGTGCAG,5560 fluorescence intensity (a.u.)
16,CAATATACCTAGAAAGAAATACAAATTGATTTAAGAAATGCGGAGTCACCTAGTGCAG,29500 fluorescence intensity (a.u.)
17,AGAGCTGTTATTATTGCGTGACGAGGCATATTCTAGACCTCGGAGTCACCTAGTGCAG,6790 fluorescence intensity (a.u.)
18,TGATAATGCAGTAGTAAGTCCAAATCACATGCATGGGCCACGGAGTCACCTAGTGCAG,18300 fluorescence intensity (a.u.)
19,ACTAATCGCACTATACTGTACGTCACAACATTGTATCAATCGGAGTCACCTAGTGCAG,3400 fluorescence intensity (a.u.)
20,CCGCTCCTCCGCCTCCATTTCCACGACTGCTTCGTCAGGGCGGAGTCACCTAGTGCAG,4950 fluorescence intensity (a.u.)
21,CCCTACTTAAGCATGAAAAGTAAGCTTACGATCTGAGCCGCGGAGTCACCTAGTGCAG,3860 fluorescence intensity (a.u.)

# Two records picked at random from the list so far:
row,Sequence,binding signal
21,CCCTACTTAAGCATGAAAAGTAAGCTTACGATCTGAGCCGCGGAGTCACCTAGTGCAG,3860 fluorescence intensity (a.u.)
19,ACTAATCGCACTATACTGTACGTCACAACATTGTATCAATCGGAGTCACCTAGTGCAG,3400 fluorescence intensity (a.u.)
